Experiment: Fecal weight in rats, LUM001 Q.D. for four days
Assay type: in vivo, Wistar rats

For `CCCCC1(CCCC)CS(=O)(=O)c2ccc(N(C)C)cc2[C@@H](c2ccc(OCc3ccc(C[N+]45CCN(CC4)CC5)cc3)cc2)[C@H]1O` [LUM001], the “Fecal Weight” value (Q.D. 0.0006 mg/kg/day) was 17.1 gm/48 hr, the “Fecal Weight” value (Q.D. 0.002 mg/kg/day) was 16.3 gm/48 hr and the “Fecal Weight” value (Q.D. 0.003 mg/kg/day) was 16.2 gm/48 hr. For the same compound, the “Fecal Weight” value (Q.D. 0.008 mg/kg/day) was 17.3 gm/48 hr, the “Fecal Weight” value (Q.D. 0.016 mg/kg/day) was 17.7 gm/48 hr and the “Fecal Weight” value (Q.D. 0.04 mg/kg/day) was 14.9 gm/48 hr. The “Fecal Weight” value (Q.D. 0.08 mg/kg/day) was 16.8 gm/48 hr, the “Fecal Weight” value (Q.D. 0.2 mg/kg/day) was 24.4 gm/48 hr and the “Fecal Weight” value (Q.D. 0.4 mg/kg/day) was 17.9 gm/48 hr. For the same compound, the “Fecal Weight” value (Q.D. 2 mg/kg/day) was 18.0 gm/48 hr.

Source: patent US20140271734A1, “BILE ACID RECYCLING INHIBITORS FOR TREATMENT OF BARRETT'S ESOPHAGUS AND GASTROESOPHAGEAL REFLUX DISEASE” (LUMENA PHARMACEUTICALS, INC., priority 2013, published 2014)
